# Experimental data as given in patent publication US20160046678A1 (ZYNGENIA, published 2016).
# Amino acid sequences for entries named in this document (tags omitted). Residues count along the entry.
# UniProt P05231, residues 30-212: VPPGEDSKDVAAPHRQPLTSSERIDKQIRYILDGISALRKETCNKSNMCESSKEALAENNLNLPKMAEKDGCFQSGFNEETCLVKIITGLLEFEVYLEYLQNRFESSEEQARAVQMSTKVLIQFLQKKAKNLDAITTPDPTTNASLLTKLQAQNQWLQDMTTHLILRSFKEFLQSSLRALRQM
# These are yes or no findings as the source states them, for the method shown. Some binding calls cover weakened binding; strength is not graded here.
# Molecular target: IL6 (UniProt P05231)
# Assay: MRD identification, Example 48
row,Binder,binding
1,QVSLCFWDPLMMTCSVPF [ILB252],binds
2,ISMPCSWDPLLMNCAKWP [ILB253],binds
3,FEAWCVWDPLLMNCVTYT [ILB254],binds
4,NRYERFMCFWDPLLMMCS [ILB255],binds
5,VIMNQFFCFWDPLLMRCM [ILB256],binds
6,FSSAYSGCYWDPLLMECI [ILB257],binds
7,WSSGLYGCYWDPLLMLCK [ILB258],binds
8,RSSADWSCLWDPLLMQCM [ILB259],binds
9,ITSLERSCMWDPLLMLCS [ILB260],binds
10,MHGYCTWDPLLMRCSNYI [ILB261],binds
11,STVGCFWDPLLMDCRSMV [ILB262],binds
12,WLSTCLWDPLLMQCIESE [ILB263],binds
13,SGVSCFWDPLRMICYILP [ILB264],binds
14,YLSSCLWDPLLMRCTKLM [ILB265],binds
15,APQQCNWDPLLMNCVKYV [ILB266],binds
16,SYVTFLSCHWDPLRMQCI [ILB267],binds
17,FSSVTSACAWDPLIMRCI [ILB268],binds
18,ALALVASVTGTRYQCRV [ILB269],binds
19,TKNVTYECMWDPLLMVCT [ILB270],binds
20,PFYEYTCCPWDPLLMNCL [ILB271],binds
21,KDYFHQYCIWDPLTMNCA [ILB272],binds
22,HYTNCVWDPLLMRCYEFA [ILB273],binds
23,AVGWCPWDPLLMNCMGRN [ILB274],binds
24,VASVCLWDPLLMQCWSHY [ILB275],binds
25,DGMICLWDPIRMDCYYTE [ILB276],binds

row,Binder,binding
1,DFTFCAWDPLLMACNDQF [ILB277],binds
2,DWEECVWDPLLMMCGISY [ILB278],binds
3,QRNYSEFCHWDPLLMLCQ [ILB279],binds
4,ALVNRVECSWDPLLMKCS [ILB280],binds
5,NLDVTPYCYWDPLRMVCY [ILB281],binds
6,PRFLIYFCNWDPLLMMCK [ILB282],binds
7,YYPITLDCHWDPLLMRCL [ILB283],binds
8,YIEINHPCHWDPLLMDCT [ILB284],binds
9,LVDVCSWDPLLMNCRLAN [ILB285],binds
10,FDTFCFWDPLLMDCAAPT [ILB286],binds
11,QSNDCAWDPLLMQCLNSL [ILB287],binds
12,MTSHCLWDPLLMVCVNHE [ILB288],binds
13,HFTFCAWDPLLMQCGIDS [ILB289],binds
14,KSTALITCIWDPLLMQCR [ILB290],binds
15,YTNNMETCAWDPLLMMCY [ILB291],binds
16,FSGKQMMCAWDPLMMQCA [ILB292],binds
17,LHLGEWDCYWDPLLMICR [ILB293],binds
18,WLFNGVDCLWDPLLMDCI [ILB294],binds
19,FHESLLPCFWDPLLMTCQ [ILB295],binds
20,LYMICTWDPLLMDCREDR [ILB296],binds
21,LNLLCAWDPLLMSCIETL [ILB297],binds
22,WEHGCMWDPLLMQCINRS [ILB298],binds
23,GSTCCVWDPLLMKCMSPV [ILB299],binds
24,GLYNCTWDPLLMRCSESI [ILB300],binds
25,DNWSISSCYWDPLLMNCP [ILB302],binds
